Test results reported in PubChem BioAssay AID1688 (National Center for Advancing Translational Sciences (NCATS), 2009).
The campaign covered roughly 220,000 compounds. About 2,400 (1.1%) were called active. This list was built around the results that the source calls inconclusive (neither active nor inactive); the mix of calls is not that of the screen. Calls come from the whole dose curve; as a rule, active = well fitted inhibition curve with a large enough effect; inconclusive = small, poorly fitted or top-dose-only effect, or effect the other way; inactive = no such curve, though single readings can be large or run the other way. Potencies beside an inconclusive call are fits to weak or partial responses and may not hold up.

Assay: qHTS Multiplex Assay to Identify Dual Action Probes in a Cell Model of Huntington: Aggregate Formation (GFP); note: nearly all actives have a fitted effect of over 60% in size
Settings: PC12 HttQ103-GFP aggregates, Acumen cytometry, 40 h; activity change, negative = inhibition: at 46.1 µM (top of the series) unless noted
Procedure, shortened: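 Inducible Q103 Huntingtin exon 1–GFP PC12 line, 1500 cells/well in phenol red free DMEM with 5% equine and 5% calf serum. Tebufenozide 100 nM induced expression; compounds titrated; aggregates quantified by cytometry.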
% is set by controls: 0 for no effect and ±100 for the full control effect; potency is the fitted concentration of half-maximal effect.

| SMILES | Potency | activity change, negative = inhibition |
| --- | --- | --- |
| O=C(C1CCN(c2ncnc3c2sc2cccc(F)c23)CC1)N1CCOCC1 | inconclusive: 11.2 µM [inhibitor, partial curve] | – |
| CCCCc1ccc(NC(=S)NCCc2ccc(S(N)(=O)=O)cc2)cc1 | inconclusive: 15.8 µM [inhibitor, single point] | – |
| CC(Oc1ccc2c(-c3ccccc3)cc(=O)oc2c1)C(=O)O (stereo unspecified) | inactive | – |
| COc1ccc(OCc2cccc(C(=O)N3CCCC3)c2)cc1 | inconclusive: 35.5 µM [inhibitor, single point] | – |
| COC(=O)c1[nH]c2c(c1C)C(=O)CC(c1ccccc1)C2 (stereo unspecified) | inactive | – |
| O=C1CSC(=S)N1Cc1cccnc1 | inconclusive: 31.6 µM [inhibitor, single point] | – |
| CCCCNC(=O)CCCn1c(=O)c2ccccc2n(CC(=O)NCCC2=CCCCC2)c1=O | inconclusive: 1.12 µM [inhibitor, partial curve] | – |
| COc1cc(C2C(C#N)=C(N)Oc3c2c(-c2ccccc2)nn3-c2ccccc2)cc(OC)c1OC (stereo unspecified) | inconclusive: 15.8 µM [inhibitor, single point] | – |
| Cc1cc(-n2nc3ccc(Cl)cc3n2)c(O)c(C(C)(C)C)c1 | inactive | – |
| COC(=O)c1ccc(C2C(C(=O)OC(C)C)=C(C)N=C3SCCC(=O)N32)cc1 (stereo unspecified) | inactive | – |
| Cc1nn(-c2ccccc2)c(C)c1/C=N/n1c(-c2ccc(C(C)(C)C)cc2)n[nH]c1=S | inconclusive: 35.5 µM [inhibitor, single point] | – |
| Cc1ccc2nc(NC(=O)CN3CCOCC3)sc2c1 | active: 3.16 µM | – |
| O=C(NCc1cccs1)c1ccccc1 | – | inactive: 17.5% [at 9.22 µM] |
| COc1ccc(NC(=O)c2cc(C3CC3)on2)c(OC)c1 | inconclusive: 1.12 µM [activator, single point] | – |
| Cc1c(CN2CCC(CO)(Cc3cccc(C(F)(F)F)c3)CC2)c2ccccc2n1C | inconclusive: 35.5 µM [inhibitor, single point] | – |
| CC(C)C(c1nnnn1C1CCCC1)N1CCOCC1 (stereo unspecified) | inactive | – |
| Cc1cnc(NC(=O)CSc2ccccc2)s1 | inconclusive: 1.41 µM [activator, full curve, poor fit] | – |
| Cc1ccc(-c2ccc(/C=N/NC(=O)CN3CCCC3)o2)cc1Cl | inactive | – |
| Cc1ccc2[nH]c(=O)c(CN(CCc3ccccc3)Cc3nnnn3CC3CCCO3)cc2c1 (stereo unspecified) | inactive | – |
| O=C1COc2ccc(-c3csc(NCCc4ccccc4)n3)cc2N1 | inactive | – |
| CC(NC(=O)CSc1nnc(CC(=O)Nc2ccc(Cl)c(Cl)c2)n1C)c1ccccc1 (stereo unspecified) | inactive | – |
| O=C(O)C1CCCN1C(=O)Nc1ccccc1 (stereo unspecified) | active: 1.12 µM | – |
| Cc1ccc(-n2[nH]c(C)c(/C=N/Nc3ccc([N+](=O)[O-])cc3[N+](=O)[O-])c2=O)cc1 | inactive | – |
| COc1ccc(-c2nnc(SCC(=O)N3CCC(Cc4ccccc4)CC3)o2)cc1OC | inconclusive: 25.1 µM [inhibitor, single point] | – |

An excerpt taken from the entries so far, for reference:

| SMILES | Potency | activity change, negative = inhibition |
| --- | --- | --- |
| CCCCc1ccc(NC(=S)NCCc2ccc(S(N)(=O)=O)cc2)cc1 | inconclusive: 15.8 µM [inhibitor, single point] | – |
| CC(Oc1ccc2c(-c3ccccc3)cc(=O)oc2c1)C(=O)O (stereo unspecified) | inactive | – |
| COc1ccc(OCc2cccc(C(=O)N3CCCC3)c2)cc1 | inconclusive: 35.5 µM [inhibitor, single point] | – |
| COC(=O)c1[nH]c2c(c1C)C(=O)CC(c1ccccc1)C2 (stereo unspecified) | inactive | – |
| O=C1CSC(=S)N1Cc1cccnc1 | inconclusive: 31.6 µM [inhibitor, single point] | – |

Remaining list, next part

| SMILES | Potency | activity change, negative = inhibition |
| --- | --- | --- |
| COc1ccc(CC2NCCC3(O)CCCCC23)cc1 (stereo unspecified) | inactive | – |
| Cc1cccc(NC(=O)c2ccccc2NC(=O)C2CCCCC2)c1C | inconclusive: 7.94 µM [activator, partial curve] | – |
| COc1ccc(/C=C(\C#N)C(=O)NCC(c2ccc(F)cc2)N2CCOCC2)cc1 (stereo unspecified) | – | inactive: 16.6% [at 9.22 µM] |
| CCCCCCSc1ncc(C#N)c(N)n1 | inconclusive: 17.8 µM [inhibitor, single point] | – |
| CCOC(=O)c1c(NC(=O)CC2SC(N)=NC2=O)sc(C)c1C (stereo unspecified) | – | inactive: 23.1% [at 9.22 µM] |
| Cc1nc(NC(=O)CSc2nnnn2Cc2ccccc2)sc1C | inconclusive: 35.5 µM [inhibitor, single point] | – |
| O=C(Cn1c(=O)oc2cc(S(=O)(=O)N3CCCCCC3)ccc21)NC1CCCCCCC1 | inconclusive: 3.16 µM [inhibitor, single point] | – |
| O=C(/C(=C/O)N=Nc1cccc(C(F)(F)F)c1)c1ccccc1 | inconclusive: 11.2 µM [inhibitor, single point] | – |
| Cn1c(=O)cc(SCC(=O)N2CCN(c3ccccc3)CC2)c2ccccc21 | inactive | – |
| O=C(Nc1ccc2c(c1)OCO2)N1CCN(c2cccc(C(F)(F)F)c2)CC1 | inconclusive: 15.8 µM [inhibitor, single point] | – |
| CCCCNC(=O)CSc1nc2ccccc2n1S(=O)(=O)c1ccc(Br)cc1 | inconclusive: 35.5 µM [inhibitor, single point] | – |
| Cc1oc2ccc(O)cc2c1C(=O)c1ccc([N+](=O)[O-])cc1 | inconclusive: 10 µM [inhibitor, partial curve] | – |
| CCC1Oc2ccc(C)cc2N(CC(=O)N(Cc2ccc(C)o2)C2CCCC2)C1=O (stereo unspecified) | inconclusive: 35.5 µM [inhibitor, single point] | – |
| COc1cc2c(cc1OC)CN(c1nc(CN3CCOCC3)nc3sc4c(c13)CCC(C)C4)CC2 (stereo unspecified) | inconclusive: 10 µM [inhibitor, partial curve] | – |
| CCCCNC(=O)c1sc2ncnc(N3CCc4ccccc4C3)c2c1C | inconclusive: 35.5 µM [inhibitor, single point] | – |
| Cc1ccc(-c2cc(C(=O)NC3=NCCS3)c3cc(Br)ccc3n2)o1 | inconclusive: 35.5 µM [activator, single point] | – |
| O=C(Cc1ccc(Br)c2ccccc12)N/N=C/c1ccccn1 | inconclusive: 31.6 µM [inhibitor, single point] | – |
| NSc1nc(N)c2nc(-c3ccccc3)c(-c3ccccc3)nc2n1 | inactive | – |
| O=C(c1ccco1)N1CCCC(c2nc(-c3ccc(S(=O)(=O)NCc4ccccc4)cc3)no2)C1 (stereo unspecified) | inconclusive: 17.8 µM [inhibitor, single point] | – |
| CCCOc1ccc(CCc2n[nH]c(=S)n2Cc2ccccc2)cc1 | inconclusive: 35.5 µM [inhibitor, single point] | – |
| COc1ccc(N2C(=O)CC(N(CCc3ccc(OC)c(OC)c3)C(=S)Nc3ccccc3)C2=O)cc1 (stereo unspecified) | inconclusive: 5.01 µM [activator, partial curve] | – |
| O=C(N/N=C/c1ccc(OC(=O)c2ccccc2)cc1)c1ccc(CN2CCOCC2)cc1 | inconclusive: 3.16 µM [activator, partial curve] | – |
| COc1ccc(CNC(=O)c2ccc(Cn3nc(C)c([N+](=O)[O-])c3C)o2)cc1 | inconclusive: 3.98 µM [inhibitor, single point] | – |
| C=CCN1C(=O)C(CC(=O)Nc2ccc(OCCC)cc2)N(CCCN2CCN(Cc3ccccc3)CC2)C1=S (stereo unspecified) | inconclusive: 35.5 µM [inhibitor, single point] | – |

| SMILES | Potency | activity change, negative = inhibition |
| --- | --- | --- |
| O=C(Nc1ccc2c(c1)nc1n2CCN(Cc2ccccc2)C1)NC1CCCCC1 | inactive | – |
| O=C(Cc1cccs1)Nc1ccc(-c2nnc(-c3ccco3)o2)cc1 | inconclusive: 1.58 µM [activator, partial curve] | – |
| COc1ccc(C(=O)Cn2c(C(=O)/C=C/c3ccccc3)nc3ccccc32)cc1 | inconclusive: 35.5 µM [inhibitor, single point] | – |
| Cc1ccc(-c2nc(N/N=C/c3cccnc3)c3ccccc3n2)cc1 | inconclusive: 31.6 µM [inhibitor, single point] | – |
| CN(CC(CC(=O)Nc1nncs1)c1ccccc1)S(=O)(=O)c1ccccc1 (stereo unspecified) | inconclusive: 17.8 µM [inhibitor, partial curve] | – |
| Cn1ncc(C(N)=O)c1NC(=S)NC(=O)c1ccc(Br)o1 | inactive | – |
| CCCCCCn1ccc(=N)cc1 | inconclusive: 2.51 µM [inhibitor, partial curve, poor fit] | – |
| Cc1ccc2cc(C(c3nnnn3Cc3ccccc3)N3CCc4ccccc43)c(=O)[nH]c2c1 (stereo unspecified) | inconclusive: 14.1 µM [inhibitor, single point] | – |
| CCCc1sc(N)nc1-c1ccc(Cl)cc1 | inconclusive: 3.55 µM [inhibitor, single point] | – |
| Cc1ccc(NC(=O)C(NC2CCCc3ccccc32)c2ccccc2)cc1Cl (stereo unspecified) | inactive | – |
| Cc1[nH]c2ccccc2c1/C=N/NC(=O)C1CC1(c1ccccc1)c1ccccc1 (stereo unspecified) | active: 12.6 µM | – |
| Cc1ccc(SCCCCN2CCNCC2)cc1 | inactive | – |
| Cc1ccc(C)c(-c2cc(C(=O)Nc3cccc(C(=O)O)c3)c3ccccc3n2)c1 | inactive | – |
| CSc1nc(Cl)c(Cc2ccc(OC(C)C)cc2)c(N2CCOCC2)n1 | inconclusive: 35.5 µM [inhibitor, single point] | – |
| O=C(CSc1ccc(Cl)cc1)N1CCN(c2c(Cl)cccc2[N+](=O)[O-])CC1 | inconclusive: 17.8 µM [inhibitor, single point] | – |
| Clc1ccc(Cn2cnc3ccccc32)cc1 | inconclusive: 11.2 µM [inhibitor, partial curve] | – |
| Cc1nc(C(=O)O)nn1-c1cc(Cl)ccc1Cl | inconclusive: 0.562 µM [activator, full curve] | – |
| O=C(O)CCC(=O)NNC(=O)c1ccc([N+](=O)[O-])cc1 | – | inactive: 10.6% [at 9.22 µM] |
| O=C1CC(c2ccc(F)cc2)CC(O)=C1C=NCCN1CCN(C(=O)Nc2ccccc2)CC1 (stereo unspecified) | inconclusive: 3.55 µM [activator, partial curve] | – |
| CCCCCn1c(=O)[nH]c2cc(C(=O)N3CCN(Cc4ccc5c(c4)OCO5)CC3)ccc2c1=O | active: 8.91 µM | – |
| CC(C)CC1=C/C(=C/c2ccc(-c3ccccc3)o2)C(=O)O1 | inconclusive: 22.4 µM [activator, single point] | – |
| CCOc1ccccc1-n1nnnc1SCC(=O)NC(=O)NCc1ccco1 | inactive | – |
| Clc1ccc(CSc2nnc3c(n2)[nH]c2ccccc23)cc1 | – | inactive: -6.63% [at 9.22 µM] |
